# Library screening results

Sequences of proteins named here, by UniProt entry; tags and fusion partners are left off.
UniProt E9BF75, entry or part of it: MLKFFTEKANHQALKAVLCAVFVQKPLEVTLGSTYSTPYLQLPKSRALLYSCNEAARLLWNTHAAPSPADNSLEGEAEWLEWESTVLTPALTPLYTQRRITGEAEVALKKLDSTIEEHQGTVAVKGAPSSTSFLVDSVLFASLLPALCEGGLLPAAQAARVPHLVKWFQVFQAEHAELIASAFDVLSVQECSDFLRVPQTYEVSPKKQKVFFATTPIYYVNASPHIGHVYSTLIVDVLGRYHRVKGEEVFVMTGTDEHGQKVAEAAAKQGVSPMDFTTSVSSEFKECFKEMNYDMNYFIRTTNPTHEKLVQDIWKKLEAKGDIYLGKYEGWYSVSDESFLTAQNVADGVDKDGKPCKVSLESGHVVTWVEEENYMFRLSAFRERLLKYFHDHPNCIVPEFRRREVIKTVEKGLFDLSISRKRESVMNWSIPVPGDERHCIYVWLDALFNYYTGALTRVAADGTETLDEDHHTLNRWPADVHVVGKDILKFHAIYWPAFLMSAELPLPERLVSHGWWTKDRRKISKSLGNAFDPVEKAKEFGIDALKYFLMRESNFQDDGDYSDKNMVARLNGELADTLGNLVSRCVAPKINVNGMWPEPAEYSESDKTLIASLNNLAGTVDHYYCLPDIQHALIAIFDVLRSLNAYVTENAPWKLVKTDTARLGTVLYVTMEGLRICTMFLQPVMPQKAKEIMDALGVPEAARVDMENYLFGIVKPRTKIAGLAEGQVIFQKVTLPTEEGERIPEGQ

Data taken from ChEMBL document CHEMBL3988442, “University of Dundee, Small-Polar-MMV Screening Library” (2021).

Mtb heat-shock: 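Assay on Mycobacterium tuberculosis, filed only as a heat shock assay from Cornell; the read-out is not stated. The concentration is filed as 10 mM, unlikely as a test dose, so the dose is not known. Higher reads as stronger inhibition (inferred: compounds with an IC50 in retests scored well above the rest). Size under these conditions: about 69,000 compounds, about 930 of them at 50% or above in at least one test.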
Mtb growth Cornell: 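Whole-cell assay for inhibitors of Mycobacterium tuberculosis growth, labelled Cornell in the record; the read-out is not stated. The concentration is filed as 10 mM, unlikely as a test dose, so the dose is not known. Higher means stronger inhibition (inferred from two other growth screens of the library). About 53,000 compounds were tested under these conditions; 1.7% (about 900) showed 50% or more at least once.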
LdMetRS: 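Primary screen of methionyl-tRNA synthetase; the read-out is not stated. Target: Methionyl-tRNA synthetase (putative), Leishmania donovani (UniProt E9BF75). The test concentration is not given. Values are per cent inhibition. About 68,000 compounds were tested under these conditions; 0.035% (about 24) showed 50% or more at least once.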

All values are in %.
The controls that fix the scale are not given in the record; negative values are as filed.
This is an unselected part of the compounds tested.
A dash means the value is not listed here; it may have been measured.

SMILES	Mtb heat-shock	Mtb growth Cornell	LdMetRS
COC(=O)CCCN(C)C(c1cccnc1)c1ccc(F)cc1F (centres undefined)	-18%	105.8%	6.383%
CN(C)c1cccc(C2CCCN2S(=O)(=O)c2cn(C)cn2)n1 (centres undefined)	21.44%	-8.535%	10.32%
Cc1csc(CNC(=O)NC2CCN(c3ncccn3)CC2)n1	-40.94%	5.083%	15.5%
Cc1cn2c(n1)CCC(NC(=O)CCCOCc1ccccc1)C2 (centres undefined)	-17.43%	-10.52%	7.958%
COc1cc(OC)cc(C2(O)CCN(Cc3nc(C)c(C)o3)CC2)c1	-12.95%	7.191%	-1.064%
O=C([C@H]1COC[C@H]2CN(C3CCOCC3)C[C@H]21)N1CCCO1	-	-	15.96%
COc1ccc(-c2csc(-c3cccc(C(=O)O)c3)n2)cc1OC	-2.052%	-	5.155%
Cc1cc(C)nc(N(C)CCN(C)C2CCCC2)n1	4.701%	0.5843%	9.021%
CS(=O)(=O)NCCCNC(=O)c1cnc(-c2ccsc2)s1	-14.26%	-10.19%	12.2%
CN(CCc1ccccc1)C(=O)c1cc(CN2CCC(O)CC2)on1	-0.1264%	-	13.87%
[H][C@@]12CCN(C(=O)CC(C)(C)C)[C@]1([H])C(=O)N(Cc1ccccc1)C(=O)N2	-4.688%	-	-
COc1cccc2c1OCC(CNC(=O)COCC(F)(F)C(F)F)C2 (centres undefined)	14.69%	-17.31%	3.78%
Cc1ccc(CNC(=O)c2ccc(=O)n(C)n2)c(OCC2CC2)c1	7.253%	-11.44%	15.72%
CN(C)C(=O)N1CCn2nc(CNC(=O)CCC(F)(F)F)cc2C1	2.243%	-23.55%	15.93%
Cn1ccnc1CCNC(=O)C1CCCN(Cc2cccc(F)c2)C1 (centres undefined)	-18%	-40.02%	13.74%
O=C(Nc1ccc(F)cc1F)NC1(CO)CCOCC1	8.201%	-	12.54%
O=C(NCCC(=O)N1CCCC1)c1nn(-c2ccccc2F)cc1O	-25.08%	7.496%	13.02%
Cc1oc(NC(=O)C(C)N2CCN(C(=O)C3CC3)CC2)c(C#N)c1C (centres undefined)	10.37%	6.664%	13.77%
O=C(c1ccc(-c2ccccc2)[nH]c1=O)N1CCN(C2CC2)CC1	0.8139%	10.45%	8.009%
O=C(C1CCCC1)N1CCN(Cc2nc(-c3ccco3)no2)CC1	-1.477%	23.25%	11.75%
CC(C)c1ccc(OCCNC(=O)c2ccoc2)cc1	-6.85%	47.16%	6.122%
Cc1ncsc1CN1C[C@@H]2CCCO[C@@H]2[C@H](Nc2ccccn2)C1	-	-	14.72%
Cc1cc(C)nc(N2C[C@H]3OC(=O)N(CCc4cccc(Cl)c4)[C@H]3C2)n1	-	-	19.55%
Cc1c[nH]c(CN2CCC3(CCCN(Cc4ccc(F)c(F)c4)C3)C2)n1 (centres undefined)	58.72%	-	-
COc1cccc(CN2CCOC(c3cnccn3)C2)c1F (centres undefined)	-2.982%	-2.413%	16.13%
CC(C)C(C)NC(=O)Nc1ccc(CC(N)=O)cc1 (centres undefined)	7.512%	-	8.168%
CCCc1nc(C(=O)N2CCCn3nc(CCC(=O)O)cc3C2)cs1	4.924%	-	15.58%
Cc1nn(C)c2nc(-c3ccccn3)nc(NC[C@@H]3CCCO3)c12	93.55%	21.74%	6.407%
Cn1cc(C(C)(O)CNc2ccccn2)cn1 (centres undefined)	-1.581%	1.538%	6.923%
Cc1[nH]/c(=N\C(=O)c2csc(NCC(C)C)n2)sc1C	103.2%	105.2%	15.56%
CC(C)n1cc(S(=O)(=O)N2CCCC(N3CCCCC3)C2)cn1 (centres undefined)	-20.3%	29.24%	25%
Cc1nc(C(C)Nc2nc3c(s2)c(C)nn3C)n[nH]1 (centres undefined)	-5.064%	-	-1.828%
Cc1nc(NC(=O)COCC2CC2)ccc1Br	4.49%	-	9.192%
COCc1cccc(NC(=O)N(C)Cc2ncc(C)c(OC)c2C)c1	10.1%	-1.951%	15.97%
[H][C@]12CC[C@@]3(N=C(CC)N(CC(C)C)C3=O)[C@@]1([H])CN(CC(=O)N(C)C)C2	3.998%	18.23%	-
COc1cccc(CC2CN(C3CC(C)(C)NC(C)(C)C3)CCO2)c1 (centres undefined)	-33.17%	-51.86%	-0.2725%
O=C(c1ccnc(C2CCNCC2)c1)N1CCCOCC1	-	-	18.55%
O=C(O)C(F)(F)F.O=C(O)C(F)(F)F.[H][C@]12C[C@H](CN(C)C)O[C@@]1([H])CN(Cc1ccco1)C2	-3.217%	28.94%	-
O=C(CCc1cc2n(n1)CCCNC2)N1CCN(C2CCCC2)C(=O)C1	-0.4162%	-34.17%	4.693%
CN1CCCC(CCC(=O)N2CCc3sc(C(=O)N(C)C)cc3C2)C1 (centres undefined)	-24.99%	1.411%	14.7%
CC(C)c1nc(C(=O)N2CCOCC2CC(=O)c2ccco2)c[nH]1 (centres undefined)	3.408%	6.285%	5.634%
CC(C)(C)NC(=O)C1CSCN1C(=O)CCc1ccco1 (centres undefined)	13.29%	-7.735%	3.361%
Cc1ccc(N2CCC3(CC2)CC(OCC(=O)N(C)C)CO3)nn1 (centres undefined)	1.823%	22.2%	14.48%
O=C(Cc1ccc(CO)cc1)N1CCN(c2ccccc2Cl)C(=O)C1	-10.04%	-	14.91%
CC(=O)N1CCC(C)(c2cc(C(=O)NCC3CC3)nc(C)n2)CC1	-3.21%	13.18%	18.69%
CC(=O)N1CCN(C(=O)c2cccc(OCc3cscn3)c2)CC1	13.42%	-	19.7%
Cl.Cn1ccnc1C1(O)CCN(C(=O)CCc2ccccc2)CC1	1.719%	38.69%	-

4 of the entries, repeated:

- O=C(O)C(F)(F)F.O=C(O)C(F)(F)F.[H][C@]12C[C@H](CN(C)C)O[C@@]1([H])CN(Cc1ccco1)C2 : Mtb heat-shock: -3.217%; Mtb growth Cornell: 28.94%
- O=C(c1ccnc(C2CCNCC2)c1)N1CCCOCC1 : LdMetRS: 18.55%
- O=C(Cc1ccc(CO)cc1)N1CCN(c2ccccc2Cl)C(=O)C1 : Mtb heat-shock: -10.04%; LdMetRS: 14.91%
- O=C(CCc1cc2n(n1)CCCNC2)N1CCN(C2CCCC2)C(=O)C1 : Mtb heat-shock: -0.4162%; Mtb growth Cornell: -34.17%; LdMetRS: 4.693%